Data as given in PubChem BioAssay AID504774 (Drosophila RNAi Screening Center, 2011)

Aim: 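Genes required for cells to withstand methyl methanesulphonate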 (primary screen)
System: Drosophila Kc167 cells
Reagent: long dsRNA against Drosophila genes, about 0.25 µg dsRNA per well
Duration: about 6 days: 3 days knock-down, then 3 days with or without MMS
Conditions: methyl methanesulphonate 0.004% (w/v) for 3 days after knock-down
Detection: 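ATP-dependent luminescence as a measure of live cells in MMS-exposed wells, quantile normalised within each plate, with replicate values also given as a mean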
Reading the numbers: mean viability with MMS and viability with MMS: higher = more surviving cells after MMS
In all, the deposit lists about 23,000 reagents; below is an unselected part of those with a known target gene and a result. 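Values are quantile-normalised luminescence on an arbitrary scale; higher means more cells surviving MMS.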 A plus sign joins genes that one reagent is predicted to hit. Not all columns of the deposit are shown. Reagent sequences are not shown.

What did the screen give for CG12170 [DRSC12199]?
mean viability with MMS: 3.83e6; viability with MMS, replicate 1: 4.36e6

What is on record for Hip14 [DRSC10570]?
mean viability with MMS: 3.52e6; viability with MMS, replicate 1: 4.02e6

What is on record for PNKP [DRSC16512]?
mean viability with MMS: 3.37e6; viability with MMS, replicate 1: 3.82e6

What did the screen give for GstO3 [DRSC10710]?
mean viability with MMS: 3.62e6; viability with MMS, replicate 1: 4.14e6

What did the screen give for Cow [DRSC13601]?
mean viability with MMS: 1.82e6; viability with MMS, replicate 1: 3.90e6

With Cow [DRSC14680], how do the results read?
mean viability with MMS: 3.70e6; viability with MMS, replicate 1: 4.06e6

For Lcp4 [DRSC07458], how do the results read?
mean viability with MMS: 3.53e6; viability with MMS, replicate 1: 3.93e6

How did the screen score Cyp4p3 [DRSC07374]?
mean viability with MMS: 3.66e6; viability with MMS, replicate 1: 4.11e6

For dikar [DRSC09699], what was measured?
mean viability with MMS: 3.49e6; viability with MMS, replicate 1: 3.97e6

With dikar [DRSC22261], what was measured?
mean viability with MMS: 3.36e6; viability with MMS, replicate 1: 3.89e6

What is on record for Patj [DRSC08712]?
mean viability with MMS: 3.42e6; viability with MMS, replicate 1: 3.85e6

What is on record for sna [DRSC03613]?
mean viability with MMS: 3.47e6; viability with MMS, replicate 1: 3.88e6

With CG32365 [DRSC10040], what was measured?
mean viability with MMS: 3.49e6; viability with MMS, replicate 1: 3.93e6

For CG32365 [DRSC10041], how do the results read?
mean viability with MMS: 2.88e6; viability with MMS, replicate 1: 3.49e6

With CG32365 [DRSC10977], how do the results read?
mean viability with MMS: 2.92e6; viability with MMS, replicate 1: 3.51e6

With Cht2 [DRSC08650], what was measured?
mean viability with MMS: 3.57e6; viability with MMS, replicate 1: 3.95e6

What is on record for unk [DRSC17093]?
mean viability with MMS: 3.57e6; viability with MMS, replicate 1: 3.99e6

For CG9664 [DRSC00725], how do the results read?
mean viability with MMS: 3.58e6; viability with MMS, replicate 1: 4.07e6

How did the screen score CG18467 [DRSC06758]?
mean viability with MMS: 3.38e6; viability with MMS, replicate 1: 3.80e6

With mfr [DRSC10543], how do the results read?
mean viability with MMS: 3.49e6; viability with MMS, replicate 1: 3.93e6

For E(spl)m8-HLH [DRSC16654], what does the deposit list?
mean viability with MMS: 3.62e6; viability with MMS, replicate 1: 4.13e6

What did the screen give for CycB [DRSC04605]?
mean viability with MMS: 3.40e6; viability with MMS, replicate 1: 3.68e6

How did the screen score CG34148 + P5CDh2 [DRSC13519]?
mean viability with MMS: 3.69e6; viability with MMS, replicate 1: 4.24e6

For CG32264 [DRSC08061], what was measured?
mean viability with MMS: 3.10e6; viability with MMS, replicate 1: 3.56e6

For CG32264 [DRSC08167], what does the deposit list?
mean viability with MMS: 3.65e6; viability with MMS, replicate 1: 4.04e6

With CG32264 [DRSC08169], what was measured?
mean viability with MMS: 3.67e6; viability with MMS, replicate 1: 4.15e6

How did the screen score CG32264 [DRSC08285]?
mean viability with MMS: 3.60e6; viability with MMS, replicate 1: 3.94e6

What did the screen give for CG32264 [DRSC08437]?
mean viability with MMS: 3.27e6; viability with MMS, replicate 1: 3.69e6

3 neighbouring entries from above:
mfr [DRSC10543] → mean viability with MMS = 3.49e6; viability with MMS, replicate 1 = 3.93e6
E(spl)m8-HLH [DRSC16654] → mean viability with MMS = 3.62e6; viability with MMS, replicate 1 = 4.13e6
CycB [DRSC04605] → mean viability with MMS = 3.40e6; viability with MMS, replicate 1 = 3.68e6
